{"source": "PubChem BioAssay AID602196 – INSERM, 2012", "purpose": "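Genes whose knock-down alters cisplatin killing of lung cancer cells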", "system": "human A549 lung cancer cells", "reagent": "siRNA pair against human genes", "duration": "48 h transfection before cisplatin; time from cisplatin to read-out not stated", "conditions": "cisplatin at a dose killing half of control-siRNA cells; exact dose and duration not given", "measured": "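Cisplatin cell death as a shift from the 50% death seen with control siRNA; siRNAs toxic or growth-blocking alone scored 0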", "reading the numbers": "two-siRNA summed score (-2 to +2): higher = both siRNAs protect from cisplatin killing; -2 means both sensitise", "active means": "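siRNAs harmful alone (LDH or WST-1) get 0; others get +1 for less and -1 for more cisplatin killing; genes are active when the two siRNAs give the same sign, summing to ±2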", "meaning of the calls": "active = both siRNAs shift cisplatin killing the same way; inactive = no consistent shift, or siRNA harmful alone", "note": "The whole screen tested about 23,000 reagents; shown is a part drawn at random. 455 of them (2%) were called active. 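Active includes both protection and sensitisation; some change values fall well beyond the stated -50 to +50 range.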 The numbers tell different reagents against one gene apart. Not all columns of the deposit are shown. No sequences are given here. Not stated in the record: the amount of reagent."}
{"gene": "FAM120A", "reagent no.": 1, "two-siRNA summed score (-2 to +2)": 0, "Outcome": "inactive"}
{"gene": "OSBPL2", "reagent no.": 1, "two-siRNA summed score (-2 to +2)": 0, "Outcome": "inactive"}
{"gene": "OSBPL2", "reagent no.": 2, "two-siRNA summed score (-2 to +2)": 0, "Outcome": "inactive"}
{"gene": "CNTNAP3", "reagent no.": 1, "two-siRNA summed score (-2 to +2)": -1, "Outcome": "inactive"}
{"gene": "F2RL2", "reagent no.": 1, "two-siRNA summed score (-2 to +2)": 0, "Outcome": "inactive"}
{"gene": "P3H4", "reagent no.": 1, "two-siRNA summed score (-2 to +2)": 0, "Outcome": "inactive"}
{"gene": "FMNL2", "reagent no.": 1, "two-siRNA summed score (-2 to +2)": 0, "Outcome": "inactive"}
{"gene": "H1-6", "reagent no.": 1, "two-siRNA summed score (-2 to +2)": 1, "Outcome": "inactive"}
{"gene": "RHPN1-AS1", "reagent no.": 1, "two-siRNA summed score (-2 to +2)": 0, "Outcome": "inactive"}
{"gene": "MROH9", "reagent no.": 1, "two-siRNA summed score (-2 to +2)": 0, "Outcome": "inactive"}
{"gene": "RAD21", "reagent no.": 1, "two-siRNA summed score (-2 to +2)": 0, "Outcome": "inactive"}
{"gene": "PDE7A", "reagent no.": 1, "two-siRNA summed score (-2 to +2)": -1, "Outcome": "inactive"}
{"gene": "EFL1", "reagent no.": 1, "two-siRNA summed score (-2 to +2)": -1, "Outcome": "inactive"}
{"gene": "ZBTB44", "reagent no.": 1, "two-siRNA summed score (-2 to +2)": 0, "Outcome": "inactive"}
{"gene": "FCGR3B", "reagent no.": 1, "two-siRNA summed score (-2 to +2)": 0, "Outcome": "inactive"}
{"gene": "KIF12", "reagent no.": 1, "two-siRNA summed score (-2 to +2)": -1, "Outcome": "inactive"}
{"gene": "RAMP3", "reagent no.": 1, "two-siRNA summed score (-2 to +2)": 0, "Outcome": "inactive"}
{"gene": "KCTD18", "reagent no.": 1, "two-siRNA summed score (-2 to +2)": 0, "Outcome": "inactive"}
{"gene": "PGS1", "reagent no.": 1, "two-siRNA summed score (-2 to +2)": 0, "Outcome": "inactive"}
{"gene": "RENBP", "reagent no.": 1, "two-siRNA summed score (-2 to +2)": 1, "Outcome": "inactive"}
{"gene": "LOC285331", "reagent no.": 1, "two-siRNA summed score (-2 to +2)": 1, "Outcome": "inactive"}

Individual results from the list:
FMNL2, two-siRNA summed score (-2 to +2): 0
FAM120A, Outcome = inactive
Under “two-siRNA summed score (-2 to +2)”, FCGR3B shows 0
